# In the supplement of paper PMC8728848:
# This is one part of the list.
# Experiments:
# Test in all cases: glycan array binding signal (z-score within array); higher = stronger binding
# Details in all cases: glycan notation: IUPAC condensed, linker removed
# [1] = molecular target: Fuc(a1-3)[Gal(b1-4)]GlcNAc
# Outline: (§1)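 Glycan array binding is given as a within-array Z-score, which can be read as non-binding when negative. The arrays, 3228 of them, came from the Consortium for Functional Glycomics database and were retained only where the protein sequence was available. Z-scores were averaged across arrays of the same protein sequence at different concentrations or buffers and across linkers.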
# [2] = molecular target: Fuc(a1-3)[Gal(b1-4)]GlcNAc(b1-2)Man(a1-3)[Fuc(a1-3)[Gal(b1-4)]GlcNAc(b1-2)Man(a1-6)]Man(b1-4)GlcNAc(b1-4)GlcNAc
# Outline: as §1
# [3] = molecular target: Fuc(a1-3)[Gal(b1-4)]GlcNAc(b1-2)Man(a1-6)[Gal(b1-4)GlcNAc(b1-2)Man(a1-3)]Man(b1-4)GlcNAc(b1-4)GlcNAc
# Outline: as §1
# [4] = molecular target: Fuc(a1-3)[Gal(b1-4)]GlcNAc(b1-3)Gal(b1-3)[Fuc(a1-4)]GlcNAc
# Outline: as §1
# [5] = molecular target: Fuc(a1-3)[Gal(b1-4)]GlcNAc(b1-4)Gal(b1-4)[Fuc(a1-3)]GlcNAc
# Outline: as §1
# [6] = molecular target: Fuc(a1-3)[Gal(b1-4)]GlcNAc(b1-4)Gal(b1-4)[Fuc(a1-3)]GlcNAc(b1-4)Gal(b1-4)[Fuc(a1-3)]GlcNAc
# Outline: as §1
# [7] = molecular target: Fuc(a1-3)[Gal(b1-4)]GlcNAc6S
# Outline: as §1
# [8] = molecular target: Fuc(a1-3)[Gal3S(b1-4)]Glc6S
# Outline: as §1
# [9] = molecular target: Fuc(a1-3)[Gal3S(b1-4)]GlcNAc
# Outline: as §1
# [10] = molecular target: Fuc(a1-3)[Gal3S(b1-4)]GlcNAc6S
# Outline: as §1
# [11] = molecular target: Fuc(a1-3)[GalNAc(b1-4)]GlcNAc
# Outline: as §1
# [12] = molecular target: Fuc(a1-4)GlcNAc
# Outline: as §1
# [13] = molecular target: Fuc(b1-3)GlcNAc
# Outline: as §1
# [14] = molecular target: Gal(a1-2)Gal
# Outline: as §1
# [15] = molecular target: Gal(a1-3)Gal
# Outline: as §1
# [16] = molecular target: Gal(a1-3)Gal(b1-3)GlcNAc
# Outline: as §1
# [17] = molecular target: Gal(a1-3)Gal(b1-4)Glc
# Outline: as §1
# [18] = molecular target: Gal(a1-3)Gal(b1-4)GlcNAc
# Outline: as §1
# [19] = molecular target: Gal(a1-3)Gal(b1-4)[Fuc(a1-3)]GlcNAc
# Outline: as §1
# [20] = molecular target: Gal(a1-3)GalNAc
# Outline: as §1
# [21] = molecular target: Gal(a1-3)[Gal(a1-4)]Gal(b1-4)GlcNAc
# Outline: as §1
# [22] = molecular target: Gal(a1-4)Gal(b1-4)Glc
# Outline: as §1
# [23] = molecular target: Gal(a1-4)Gal(b1-4)GlcNAc
# Outline: as §1
# [24] = molecular target: Gal(a1-4)GlcNAc
# Outline: as §1
# [25] = molecular target: Gal(a1-6)Glc
# Outline: as §1
# [26] = molecular target: Gal(b1-2)Gal
# Outline: as §1
# [27] = molecular target: Gal(b1-3)Gal
# Outline: as §1
# [28] = molecular target: Gal(b1-3)Gal(b1-4)GlcNAc
# Outline: as §1
# [29] = molecular target: Gal(b1-3)GalNAc
# Outline: as §1
# [30] = molecular target: Gal(b1-3)GalNAc(b1-3)Gal(a1-4)Gal(b1-4)Glc
# Outline: as §1
# [31] = molecular target: Gal(b1-3)GalNAc(b1-4)Gal(b1-4)Glc
# Outline: as §1
# [32] = molecular target: Gal(b1-3)GalNAc(b1-4)[Neu5Ac(a2-3)]Gal(b1-4)Glc
# Outline: as §1
# [33] = molecular target: Gal(b1-3)GlcNAc
# Outline: as §1
# [34] = molecular target: Gal(b1-3)GlcNAc(b1-2)Man(a1-3)[Gal(b1-3)GlcNAc(b1-2)Man(a1-6)]Man(b1-4)GlcNAc(b1-4)GlcNAc
# Outline: as §1
# [35] = molecular target: Gal(b1-3)GlcNAc(b1-3)Gal(b1-3)GlcNAc
# Outline: as §1
# [36] = molecular target: Gal(b1-3)GlcNAc(b1-3)Gal(b1-4)Glc
# Outline: as §1
# [37] = molecular target: Gal(b1-3)GlcNAc(b1-3)Gal(b1-4)GlcNAc
# Outline: as §1
# [38] = molecular target: Gal(b1-3)[Fuc(a1-4)]GlcNAc
# Outline: as §1
binder,measurement,setting,value
"SLLPI (Homo sapiens), Q8IXA5 (protein) MVSALRGAPLIRVHSSPVSSPSVSGPRRLVSCLSSQSSALSQSGGGSTSAAGIEARSRALRRRWCPAGIMLLALVCLLSCLLPSSEAKLYGRCELARVLHDFGLDGYRGYSLADWVCLAYFTSGFNAAALDYEADGSTNNGIFQINSRRWCSNLTPNVPNVCRMYCSDLLNPNLKDTVICAMKITQEPQGLGYWEAWRHHCQGKDLTEWVDGCDF",glycan array binding signal (z-score),[1],1.31
same,glycan array binding signal (z-score),[2],1.2
same,glycan array binding signal (z-score),[3],-0.298
same,glycan array binding signal (z-score),[4],-0.385
same,glycan array binding signal (z-score),[5],-0.051
same,glycan array binding signal (z-score),[6],-0.391
same,glycan array binding signal (z-score),[7],0.695
same,glycan array binding signal (z-score),[8],1.65
same,glycan array binding signal (z-score),[9],0.407
same,glycan array binding signal (z-score),[10],1.31
same,glycan array binding signal (z-score),[11],0.02
same,glycan array binding signal (z-score),[12],-0.545
same,glycan array binding signal (z-score),[13],-0.512
same,glycan array binding signal (z-score),[14],0.011
same,glycan array binding signal (z-score),[15],0.116
same,glycan array binding signal (z-score),[16],-0.17
same,glycan array binding signal (z-score),[17],-0.234
same,glycan array binding signal (z-score),[18],-0.505
same,glycan array binding signal (z-score),[19],0.302
same,glycan array binding signal (z-score),[20],0.227
same,glycan array binding signal (z-score),[21],0.947
same,glycan array binding signal (z-score),[22],0.048
same,glycan array binding signal (z-score),[23],-0.314
same,glycan array binding signal (z-score),[24],-0.139
same,glycan array binding signal (z-score),[25],-0.362
same,glycan array binding signal (z-score),[26],0.717
same,glycan array binding signal (z-score),[27],-0.241
same,glycan array binding signal (z-score),[28],-0.292
same,glycan array binding signal (z-score),[29],-0.23
same,glycan array binding signal (z-score),[30],-0.26
same,glycan array binding signal (z-score),[31],-0.063
same,glycan array binding signal (z-score),[32],-0.386
same,glycan array binding signal (z-score),[33],-0.29
same,glycan array binding signal (z-score),[34],0.777
same,glycan array binding signal (z-score),[35],-0.289
same,glycan array binding signal (z-score),[36],0.044
same,glycan array binding signal (z-score),[37],-0.443
same,glycan array binding signal (z-score),[38],-0.111

# Fetched one by one from above (three):
binder,measurement,setting,value
"SLLPI (Homo sapiens), Q8IXA5 (protein) MVSALRGAPLIRVHSSPVSSPSVSGPRRLVSCLSSQSSALSQSGGGSTSAAGIEARSRALRRRWCPAGIMLLALVCLLSCLLPSSEAKLYGRCELARVLHDFGLDGYRGYSLADWVCLAYFTSGFNAAALDYEADGSTNNGIFQINSRRWCSNLTPNVPNVCRMYCSDLLNPNLKDTVICAMKITQEPQGLGYWEAWRHHCQGKDLTEWVDGCDF",glycan array binding signal (z-score),[5],-0.051
same,glycan array binding signal (z-score),[13],-0.512
same,glycan array binding signal (z-score),[32],-0.386
